Source: PubChem BioAssay AID1508597 (Cure First, 2020)
Aim: 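Genes whose silencing sensitises or protects ovarian cancer cells against rucaparib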 (primary screen). Cell system: human ovarian carcinoma lines grown from tumours: OCI-P5x (papillary serous) and OCI-C5x (clear cell). Knock-down reagent: siRNA pool against human genes, 1.25 pmol siRNA per well. Timing: 72 h or 96 h, depending on the cell culture. Challenge: rucaparib 20 µM (about IC30) or vehicle, present until read-out. Detection: 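Luminescent ATP-based viability assay read 72 or 96 h after transfection, depending on culture, given as normalised percent viability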. Direction: viability, normalised: higher = more viable cells remaining. Rule for the call: 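Active when normalised viability falls below 80 percent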. Meaning of the calls: active = viability under 80%; inactive = viability 80% or more.
The deposit covers about 2,100 reagents; this is a part drawn at random. 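Calls flag viability under 80% in either arm, not effects specific to rucaparib; the reference for percent is not stated.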 A reagent listed more than once was tested more than once; the source does not tell the runs apart. Not given: the 100% reference.

no.	gene symbol	rucaparib or vehicle	cell line	technical replicate	viability, normalised (%)	activity call
1	DAPK3 (death associated protein kinase 3)	Rucaparib	OCI-C5x (clear cell)	1	62.7	active
2	DAPK3 (death associated protein kinase 3)	Rucaparib	OCI-C5x (clear cell)	1	58.2	active
3	DAPK3 (death associated protein kinase 3)	Rucaparib	OCI-C5x (clear cell)	2	66.1	active
4	DAPK3 (death associated protein kinase 3)	Rucaparib	OCI-C5x (clear cell)	2	56.5	active
5	DAPK3 (death associated protein kinase 3)	Rucaparib	OCI-C5x (clear cell)	3	44.9	active
6	DAPK3 (death associated protein kinase 3)	Rucaparib	OCI-C5x (clear cell)	3	73.9	active
7	DAPK3 (death associated protein kinase 3)	Rucaparib	OCI-P5x (serous)	1	47.4	active
8	DAPK3 (death associated protein kinase 3)	Rucaparib	OCI-P5x (serous)	1	85	inactive
9	DAPK3 (death associated protein kinase 3)	Rucaparib	OCI-P5x (serous)	2	65.4	active
10	DAPK3 (death associated protein kinase 3)	Rucaparib	OCI-P5x (serous)	2	83.5	inactive
11	DAPK3 (death associated protein kinase 3)	Rucaparib	OCI-P5x (serous)	3	45.6	active
12	DAPK3 (death associated protein kinase 3)	Rucaparib	OCI-P5x (serous)	3	92.4	inactive
13	DAPK3 (death associated protein kinase 3)	Vehicle	OCI-C5x (clear cell)	1	61.2	active
14	DAPK3 (death associated protein kinase 3)	Vehicle	OCI-C5x (clear cell)	1	36.3	active
15	DAPK3 (death associated protein kinase 3)	Vehicle	OCI-C5x (clear cell)	2	66.9	active
16	DAPK3 (death associated protein kinase 3)	Vehicle	OCI-C5x (clear cell)	2	50.9	active
17	DAPK3 (death associated protein kinase 3)	Vehicle	OCI-C5x (clear cell)	3	37.1	active
18	DAPK3 (death associated protein kinase 3)	Vehicle	OCI-C5x (clear cell)	3	72.1	active
19	DAPK3 (death associated protein kinase 3)	Vehicle	OCI-P5x (serous)	1	82.9	inactive
20	DAPK3 (death associated protein kinase 3)	Vehicle	OCI-P5x (serous)	1	54.2	active
21	DAPK3 (death associated protein kinase 3)	Vehicle	OCI-P5x (serous)	2	79.6	active
22	DAPK3 (death associated protein kinase 3)	Vehicle	OCI-P5x (serous)	2	62.9	active
23	DAPK3 (death associated protein kinase 3)	Vehicle	OCI-P5x (serous)	3	79.2	active
24	DAPK3 (death associated protein kinase 3)	Vehicle	OCI-P5x (serous)	3	59	active

Copied from the listing for reference:
no.	gene symbol	rucaparib or vehicle	cell line	technical replicate	viability, normalised (%)	activity call
12	DAPK3 (death associated protein kinase 3)	Rucaparib	OCI-P5x (serous)	3	92.4	inactive
13	DAPK3 (death associated protein kinase 3)	Vehicle	OCI-C5x (clear cell)	1	61.2	active
14	DAPK3 (death associated protein kinase 3)	Vehicle	OCI-C5x (clear cell)	1	36.3	active
15	DAPK3 (death associated protein kinase 3)	Vehicle	OCI-C5x (clear cell)	2	66.9	active
16	DAPK3 (death associated protein kinase 3)	Vehicle	OCI-C5x (clear cell)	2	50.9	active
17	DAPK3 (death associated protein kinase 3)	Vehicle	OCI-C5x (clear cell)	3	37.1	active

The list goes on.
no.	gene symbol	rucaparib or vehicle	cell line	technical replicate	viability, normalised (%)	activity call
25	SMPD3 (sphingomyelin phosphodiesterase 3)	Rucaparib	OCI-C5x (clear cell)	1	74.4	active
26	SMPD3 (sphingomyelin phosphodiesterase 3)	Rucaparib	OCI-C5x (clear cell)	2	71.2	active
27	SMPD3 (sphingomyelin phosphodiesterase 3)	Rucaparib	OCI-C5x (clear cell)	3	76.9	active
28	SMPD3 (sphingomyelin phosphodiesterase 3)	Rucaparib	OCI-P5x (serous)	1	52.2	active
29	SMPD3 (sphingomyelin phosphodiesterase 3)	Rucaparib	OCI-P5x (serous)	2	42.3	active
30	SMPD3 (sphingomyelin phosphodiesterase 3)	Rucaparib	OCI-P5x (serous)	3	47.3	active
31	SMPD3 (sphingomyelin phosphodiesterase 3)	Vehicle	OCI-C5x (clear cell)	1	61.3	active
32	SMPD3 (sphingomyelin phosphodiesterase 3)	Vehicle	OCI-C5x (clear cell)	2	62.6	active
33	SMPD3 (sphingomyelin phosphodiesterase 3)	Vehicle	OCI-C5x (clear cell)	3	55.8	active
34	SMPD3 (sphingomyelin phosphodiesterase 3)	Vehicle	OCI-P5x (serous)	1	68.8	active
35	SMPD3 (sphingomyelin phosphodiesterase 3)	Vehicle	OCI-P5x (serous)	2	74.4	active
36	SMPD3 (sphingomyelin phosphodiesterase 3)	Vehicle	OCI-P5x (serous)	3	35.9	active
37	UBR5 (ubiquitin protein ligase E3 component n-recognin 5)	Rucaparib	OCI-C5x (clear cell)	1	50.7	active
38	UBR5 (ubiquitin protein ligase E3 component n-recognin 5)	Rucaparib	OCI-C5x (clear cell)	2	49.8	active
39	UBR5 (ubiquitin protein ligase E3 component n-recognin 5)	Rucaparib	OCI-C5x (clear cell)	3	52.4	active
40	UBR5 (ubiquitin protein ligase E3 component n-recognin 5)	Rucaparib	OCI-P5x (serous)	1	83.6	inactive
41	UBR5 (ubiquitin protein ligase E3 component n-recognin 5)	Rucaparib	OCI-P5x (serous)	2	75.5	active
42	UBR5 (ubiquitin protein ligase E3 component n-recognin 5)	Rucaparib	OCI-P5x (serous)	3	60.9	active
43	UBR5 (ubiquitin protein ligase E3 component n-recognin 5)	Vehicle	OCI-C5x (clear cell)	1	56.9	active
44	UBR5 (ubiquitin protein ligase E3 component n-recognin 5)	Vehicle	OCI-C5x (clear cell)	2	62.9	active
45	UBR5 (ubiquitin protein ligase E3 component n-recognin 5)	Vehicle	OCI-C5x (clear cell)	3	60.6	active
46	UBR5 (ubiquitin protein ligase E3 component n-recognin 5)	Vehicle	OCI-P5x (serous)	1	78.5	active
47	UBR5 (ubiquitin protein ligase E3 component n-recognin 5)	Vehicle	OCI-P5x (serous)	2	71.5	active
48	UBR5 (ubiquitin protein ligase E3 component n-recognin 5)	Vehicle	OCI-P5x (serous)	3	87.5	inactive
